Experimental data reported in patent US20100136660A1 (published 2010).
No constants are given. Whether binding was seen depends on the method and setting.

What was measured:
Assay in all cases: phage ELISA
trypsin inhibitor = molecular target: trypsin inhibitor
[1] = molecular target: GAP-DH (glyceraldehyde-3-phosphate dehydrogenase)
[2] = molecular target: keyhole limpet haemocyanin (keyhole limpet)
cytochrome C = molecular target: cytochrome C

Measured: binding

B1: human scFv VH14.1/VL14.1 (lysozyme binder from unimmunized library) (scFv, V domains shown)
VH: QVQLQESGPGLVKPSETLSLVCTVSGGSLSFSYWGWIRQPPGKGLEWIGYISHRGTDYNSSLQSRVTISADTSKNQFSLKLSSVTAADTAVYYCARSFSNSFFFGYWGQGT
VL: SSELTQDPAVSVAFGQTVRITCQGDSLRSSYASWYQQKPGQAPLLVIYGENSRPSGIPDRFSGSSSGNTASLTITGAQAEDEADYYCNSRDSRGTHLEVFGG
notes: scFv on phage from pHEN1
no binding (tested: 100 ug/ml coating): all assays above

B2: human scFv VH13.1/VL13.1 (lysozyme binder from unimmunized library) (scFv, V domains shown)
VH: QVQLVQSGAEVKKPGQSLMISCQGSGYSFSNYWIGWVRQMPGKGLEWMGIIYPGDSDTRYSPSFQGQVTISADKSISTAYLHWSSLKASDTALYYCARLVGGTPAYWGQGT
VL: HVILTQPASVSGSPGQSITISCTGSSRDVGGYNYVSWYQHHPGKAPKLLISEVTNRPSGVSNRFSGSKSGNTASLTISGLQAEDEADYFCASYTSSKTYVFGG
notes: scFv on phage from pHEN1
no binding (tested: 100 ug/ml coating): all assays above
